The nature of this data set: Boc solid-phase peptide synthesis; chloromethylated styrene divinyl benzene resin, 200-400 mesh, 1% divinyl benzene, 0.75 mM chloride per gram; dicyclohexyl carbodiimide. Particulars: whole synthesis.

Some peptides are written in HELM: one residue between dots, names in brackets for other building blocks, links after the first $.

Experimental findings from patent publication US4002740A (priority 1975, dated 1977) are described below.

Regarding “PEPTIDE1{G.E.Q.R.K.D.V.Y.V.Q.L.Y.L}$$$$V2.0”, the “final purity (method not given)” value worked out at 94%.
